Drawing on PMC3482226, this text covers binding for three molecules.

Sequences of proteins named here, by UniProt entry; tags and fusion partners are left off.
UniProt O88522: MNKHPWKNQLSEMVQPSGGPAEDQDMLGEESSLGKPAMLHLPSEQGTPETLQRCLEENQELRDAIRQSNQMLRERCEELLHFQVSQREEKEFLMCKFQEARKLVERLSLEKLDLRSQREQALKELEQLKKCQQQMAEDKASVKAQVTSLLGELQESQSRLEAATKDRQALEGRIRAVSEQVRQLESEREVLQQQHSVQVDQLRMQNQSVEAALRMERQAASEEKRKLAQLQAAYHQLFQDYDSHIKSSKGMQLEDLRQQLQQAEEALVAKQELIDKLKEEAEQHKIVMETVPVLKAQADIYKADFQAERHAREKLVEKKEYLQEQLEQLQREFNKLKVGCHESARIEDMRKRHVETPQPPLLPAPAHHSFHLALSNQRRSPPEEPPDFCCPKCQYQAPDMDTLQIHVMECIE

These are yes or no findings as the source states them, for the method shown. For part of these data: Binding seen in cells or lysates may run through a third protein. Some binding calls cover weakened binding; strength is not graded here.

Assay [1] has as its target T1, NF-κB p50 (mouse (endogenous in MEFs)), P25799.
T1 chain: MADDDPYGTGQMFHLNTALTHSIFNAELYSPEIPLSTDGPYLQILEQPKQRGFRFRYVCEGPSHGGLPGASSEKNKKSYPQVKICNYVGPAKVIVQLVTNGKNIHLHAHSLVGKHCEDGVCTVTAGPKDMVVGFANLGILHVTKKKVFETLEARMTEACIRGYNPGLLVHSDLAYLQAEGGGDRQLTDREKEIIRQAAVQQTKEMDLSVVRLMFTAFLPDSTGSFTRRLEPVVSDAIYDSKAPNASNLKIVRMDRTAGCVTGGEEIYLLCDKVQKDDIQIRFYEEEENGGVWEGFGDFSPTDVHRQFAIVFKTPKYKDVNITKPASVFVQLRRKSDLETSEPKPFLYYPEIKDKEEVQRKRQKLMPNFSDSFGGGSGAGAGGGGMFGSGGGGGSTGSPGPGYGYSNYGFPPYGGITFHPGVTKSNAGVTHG
Briefly: native gel or EMSA; supershift EMSA: nuclear extracts (MEFs, 5 hr DTT or Tg; CHO cells, 2 hr sample) with 32P-labelled NF-κB site probe, antibodies against p65 and/or p50 added for 1 hr on ice at 4°C, 5% non-denaturing polyacrylamide gel. Conditions: remark: other sources report otherwise. Background: Mobility shift assays separate free from complexed probe on a gel.

Assay [2] addresses IKKγ (NEMO) (mouse (endogenous in MEFs)) (UniProt O88522). In words: co-IP; IKK complex immunoprecipitated with anti-IKKγ antibody from extracts of IRE1+/+ and ire1-/- MEFs; input, depleted and IP fractions blotted for IKKα, IKKβ and IKKγ (Figure 3E); the same IP from cytoplasmic extracts of WT MEFs (untreated, Tg, DTT, TNFα) depleted IKKα (Figure 1E).

B1: NF-κB p65 (RelA), Q04207 1-549 (protein)
chain: MDDLFPLIFPSEPAQASGPYVEIIEQPKQRGMRFRYKCEGRSAGSIPGERSTDTTKTHPTIKINGYTGPGTVRISLVTKDPPHRPHPHELVGKDCRDGYYEADLCPDRSIHSFQNLGIQCVKKRDLEQAISQRIQTNNNPFHVPIEEQRGDYDLNAVRLCFQVTVRDPAGRPLLLTPVLSHPIFDNRAPNTAELKICRVNRNSGSCLGGDEIFLLCDKVQKEDIEVYFTGPGWEARGSFSQADVHRQVAIVFRTPPYADPSLQAPVRVSMQLRRPSDRELSEPMEFQYLPDTDDRHRIEEKRKRTYETFKSIMKKSPFNGPTEPRPPTRRIAVPTRNSTSVPKPAPQPYTFPASLSTINFDEFSPMLLPSGQISNQALALAPSSAPVLAQTMVPSSAMVPLAQPPAPAPVLTPGPPQSLSAPVPKSTQAGEGTLSEALLHLQFDADEDLGALLGNSTDPGVFTDLASVDNSEFQQLLNQGVSMSHSTAEPMLMEYPEAITRLVTGSQRPPDPAPTPLGTSGLPNGLSGDEDFSSIADMDFSALLSQISS
Regarding B1, in assay [1], the binding result was “binds”.

B2: IKKα (protein, UniProt Q60680 1-745)
chain: MERPPGLRPGAGGPWEMRERLGTGGFGNVSLYQHRELDLKIAIKSCRLELSSKNRERWCHEIQIMKKLDHANVVKACDVPEELNFLINDVPLLAMEYCSGGDLRKLLNKPENCCGLKESQILSLLSDIGSGIRYLHENKIIHRDLKPENIVLQDVGGKTIHKIIDLGYAKDVDQGSLCTSFVGTLQYLAPELFENKPYTATVDYWSFGTMVFECIAGYRPFLHHLQPFTWHEKIKKKDPKCIFACEEMTGEVRFSSHLPQPNSLCSLIVEPMESWLQLMLNWDPQQRGGPIDLTLKQPRCFALMDHILNLKIVHILNMTSAKIISFLLPCDESLHSLQSRIERETGINTGSQELLSETGISLDPRKPASQCVLDGVRGCDSYMVYLFDKSKTVYEGPFASRSLSDCVNYIVQDSKIQLPIIQLRKVWAEAVHYVSGLKEDYSRLFQGQRAAMLSLLRYNANLTKMKNTLISASQQLKAKLEFFRKSIQLDLERYSEQMTYGISSEKMLKAWKEMEEKAIHYSEVGVIGYLEDQIMSLHTEIMELQKSPYGRRQGDLMESLEQRAIDLYKQLKHRPPDHLYSDSTEMVKIIVHTVQSQDRVLKELFGHLSKLLGCKQKIIDLLPKVEVALSNIKEADNTVMFMQGKRQKEIWHLLKIACTQSSARSLVGSSLEGTVTPPVSAWLPPTLADREHPLTCVVTPQDGETLAQMIEENLNCLGHLSTIIREANEDQSSSLMSLDWSWLAE
Regarding B2, the binding entry in assay [2] was “binds”.

B3: IKKβ (protein, UniProt O88351 1-757)
chain: MSWSPSLPTQTCGAWEMKERLGTGGFGNVIRWHNQATGEQIAIKQCRQELSPKNRNRWCLEIQIMRRLNHPNVVAARDVPEGMQNLAPNDLPLLAMEYCQGGDLRRYLNQFENCCGLREGAVLTLLSDIASALRYLHENRIIHRDLKPENIVLQQGEKRLIHKIIDLGYAKELDQGSLCTSFVGTLQYLAPELLEQQKYTVTVDYWSFGTLAFECITGFRPFLPNWQPVQWHSKVRQKSEVDIVVSEDLNGAVKFSSSLPFPNNLNSVLAERLEKWLQLMLMWHPRQRGTDPQYGPNGCFRALDDILNLKLVHVLNMVTGTVHTYPVTEDESLQSLKTRIQENTGILETDQELLQKAGLVLLPDKPATQCISDSKTNEGLTLDMDLVFLLDNSKINYETQITPRPPPESVSCILQEPKRNLSFFQLRKVWGQVWHSIQTLKEDCNRLQQGQRAAMMSLLRNNSCLSKMKNAMASTAQQLKAKLDFFKTSIQIDLEKYKEQTEFGITSDKLLLAWREMEQAVEQCGRENDVKHLVERMMALQTDIVDLQRSPMGRKQGGTLDDLEEQARELYRKLREKPRDQRTEGDSQEMVRLLLQAIQSFEKKVRVIYTQLSKTVVCKQKALELLPKVEEVVSLMNEDERTVVRLQEKRQKELWNLLKIACSKVRGPVSGSPDSMNVSRLSHPGQLMSQPSSACDSLPESDKKSEELVAEAHALCSRLESALQDTVKEQDRSFTTLDWSWLQMEDEERCSLEQACD
For B3, the binding result in assay [2] is reported as “binds”.
